Measurements from article PMC3510508, “Rbg1–Tma46 dimer structure reveals new functional domains and their role in polysome recruitment” (Nucleic Acids Research, 2012).
No constants are given. Whether binding was seen depends on the method and setting. For part of these data: Binding seen in cells or lysates may run through a third protein. Some results given as binding are weak or reduced against the parent protein; the word gives no strength. Tags and fused reporters may be left off the sequences shown.

Tests used:
[1] = biological target: T1, 6His-tagged full-length Rbg1 (yeast) (UniProt P39729); experiment: pull-down; N-terminally 6His-tagged Rbg1 (or variant) co-expressed with untagged Tma46 (or fragment) from an artificial operon in E. coli; purified on Ni–NTA; eluates on denaturing gel, Coomassie staining
T1 sequence: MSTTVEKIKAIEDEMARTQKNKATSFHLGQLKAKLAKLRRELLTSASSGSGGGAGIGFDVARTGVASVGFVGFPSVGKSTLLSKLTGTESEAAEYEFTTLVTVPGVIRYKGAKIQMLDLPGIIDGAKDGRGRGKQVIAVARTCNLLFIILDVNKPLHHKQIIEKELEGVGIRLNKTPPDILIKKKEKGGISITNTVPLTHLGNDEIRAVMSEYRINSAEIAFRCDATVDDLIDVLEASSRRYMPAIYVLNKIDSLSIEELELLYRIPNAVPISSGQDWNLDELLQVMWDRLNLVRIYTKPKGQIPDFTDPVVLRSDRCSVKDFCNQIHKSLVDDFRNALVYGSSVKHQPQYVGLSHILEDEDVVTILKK

TAP-tagged Rbg1 (yeast) = biological target: T2, TAP-tagged Rbg1 (yeast) (UniProt P39729); experiment: co-IP; extracts of Δtma46 yeast with TAP-tagged Rbg1 and HA-Tma46 variants on a centromeric plasmid; Rbg1-TAP precipitated on IgG beads, 4°C 2 h, 150 mM NaCl; western blot of HA
T2 sequence: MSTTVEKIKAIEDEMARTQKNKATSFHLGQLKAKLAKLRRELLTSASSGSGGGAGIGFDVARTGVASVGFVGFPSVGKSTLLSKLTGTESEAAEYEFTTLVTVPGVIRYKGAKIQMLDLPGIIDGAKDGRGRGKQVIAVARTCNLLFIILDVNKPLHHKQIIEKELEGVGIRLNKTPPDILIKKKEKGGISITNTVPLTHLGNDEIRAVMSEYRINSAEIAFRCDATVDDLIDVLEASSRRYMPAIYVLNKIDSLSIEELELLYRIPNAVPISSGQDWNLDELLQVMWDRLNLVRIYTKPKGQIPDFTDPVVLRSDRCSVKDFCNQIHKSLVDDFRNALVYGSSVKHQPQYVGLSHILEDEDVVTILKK

TAP-tagged Tma46 (yeast) = biological target: T3, TAP-tagged Tma46 (yeast) (UniProt Q12000); experiment: co-IP; extracts of Δrbg1 yeast expressing Tma46–TAP and HA-tagged Rbg1 variants; Tma46–TAP precipitated on IgG beads, 4°C 2 h, 150 mM NaCl; western blot of HA
T3 sequence: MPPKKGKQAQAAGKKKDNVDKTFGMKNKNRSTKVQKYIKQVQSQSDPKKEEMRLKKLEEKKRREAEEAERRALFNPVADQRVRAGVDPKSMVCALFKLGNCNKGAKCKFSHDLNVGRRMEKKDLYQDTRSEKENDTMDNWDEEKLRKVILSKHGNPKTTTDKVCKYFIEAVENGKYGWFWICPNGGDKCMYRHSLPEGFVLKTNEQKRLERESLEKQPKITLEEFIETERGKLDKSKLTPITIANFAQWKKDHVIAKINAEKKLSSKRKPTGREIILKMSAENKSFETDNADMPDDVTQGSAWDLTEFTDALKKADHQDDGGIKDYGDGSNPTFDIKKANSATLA

[2] = biological target: T1, 6His-tagged full-length Rbg1 (yeast); experiment: SEC; purified Rbg1fl–Tma46 205–345 complex on a size exclusion column at 4°C in buffer S (150 mM NaCl, 20 mM Tris pH 7.5, 2 mM DTT); both purified
[3] = biological target: T1, 6His-tagged full-length Rbg1 (yeast); experiment: crystal structure; Rbg1fl–Tma46 205–345 complex, vapor diffusion at 4°C, SIRAS with selenomethionine derivative, 2.67 Å, two complexes in the asymmetric unit; both purified

B1: full-length Tma46 (protein, UniProt Q12000 1-345)
chain: MPPKKGKQAQAAGKKKDNVDKTFGMKNKNRSTKVQKYIKQVQSQSDPKKEEMRLKKLEEKKRREAEEAERRALFNPVADQRVRAGVDPKSMVCALFKLGNCNKGAKCKFSHDLNVGRRMEKKDLYQDTRSEKENDTMDNWDEEKLRKVILSKHGNPKTTTDKVCKYFIEAVENGKYGWFWICPNGGDKCMYRHSLPEGFVLKTNEQKRLERESLEKQPKITLEEFIETERGKLDKSKLTPITIANFAQWKKDHVIAKINAEKKLSSKRKPTGREIILKMSAENKSFETDNADMPDDVTQGSAWDLTEFTDALKKADHQDDGGIKDYGDGSNPTFDIKKANSATLA
binding [1]: binds

B2: HA-tagged Tma46 (wild type) (protein, UniProt Q12000 1-345)
chain: MPPKKGKQAQAAGKKKDNVDKTFGMKNKNRSTKVQKYIKQVQSQSDPKKEEMRLKKLEEKKRREAEEAERRALFNPVADQRVRAGVDPKSMVCALFKLGNCNKGAKCKFSHDLNVGRRMEKKDLYQDTRSEKENDTMDNWDEEKLRKVILSKHGNPKTTTDKVCKYFIEAVENGKYGWFWICPNGGDKCMYRHSLPEGFVLKTNEQKRLERESLEKQPKITLEEFIETERGKLDKSKLTPITIANFAQWKKDHVIAKINAEKKLSSKRKPTGREIILKMSAENKSFETDNADMPDDVTQGSAWDLTEFTDALKKADHQDDGGIKDYGDGSNPTFDIKKANSATLA
binding (TAP-tagged Rbg1 (yeast)): binds

B3: HA-tagged Rbg1 (wild type) (enzyme, UniProt P39729 1-369)
chain: MSTTVEKIKAIEDEMARTQKNKATSFHLGQLKAKLAKLRRELLTSASSGSGGGAGIGFDVARTGVASVGFVGFPSVGKSTLLSKLTGTESEAAEYEFTTLVTVPGVIRYKGAKIQMLDLPGIIDGAKDGRGRGKQVIAVARTCNLLFIILDVNKPLHHKQIIEKELEGVGIRLNKTPPDILIKKKEKGGISITNTVPLTHLGNDEIRAVMSEYRINSAEIAFRCDATVDDLIDVLEASSRRYMPAIYVLNKIDSLSIEELELLYRIPNAVPISSGQDWNLDELLQVMWDRLNLVRIYTKPKGQIPDFTDPVVLRSDRCSVKDFCNQIHKSLVDDFRNALVYGSSVKHQPQYVGLSHILEDEDVVTILKK
binding (TAP-tagged Tma46 (yeast)): binds

B4: Tma46 C-terminal region (amino acids 205–345) (domain or fragment, UniProt Q12000 205-345)
chain: EQKRLERESLEKQPKITLEEFIETERGKLDKSKLTPITIANFAQWKKDHVIAKINAEKKLSSKRKPTGREIILKMSAENKSFETDNADMPDDVTQGSAWDLTEFTDALKKADHQDDGGIKDYGDGSNPTFDIKKANSATLA
binding [2]: binds
binding [3]: binds

B5: Tma46_(239–345) (Tma46Δα1) (domain or fragment, UniProt Q12000 239-345)
chain: TPITIANFAQWKKDHVIAKINAEKKLSSKRKPTGREIILKMSAENKSFETDNADMPDDVTQGSAWDLTEFTDALKKADHQDDGGIKDYGDGSNPTFDIKKANSATLA
binding [1]: binds
